The results in this text go back to article PMC4468853.

Chains of the proteins cited; added tags and fusions are not shown.
UniProt Q8WW35: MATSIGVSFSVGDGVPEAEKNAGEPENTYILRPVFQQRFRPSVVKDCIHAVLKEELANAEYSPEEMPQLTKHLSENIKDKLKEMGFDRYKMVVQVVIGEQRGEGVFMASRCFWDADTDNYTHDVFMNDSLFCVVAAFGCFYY

No constants are given. Whether binding was seen depends on the method and setting. Binding seen in cells or lysates may run through a third protein. Some entries that bind do so weakly or less than the wild type. Tags and fused reporters may be left off the sequences shown.

The assay deals with Flag-tagged TCTEX1D2 (human) (UniProt Q8WW35). The assay is described as follows: co-IP; overexpression of Flag-tagged TCTEX1D2 and GFP-tagged WDR60 in HEK293T cells.

B1: GFP-tagged WDR60 (protein, UniProt Q8C761 1-999)
chain: MEPGKRRTKDDTWKADDLRKHLKVQSGSPKEEKKLREKKAHKDSESAAPEYREHKSRDPDREARHKEKTAERDLYTSTEHPRGERDRERHKERRKDAKDREKDKLKERHRDQEAEKAHSRGKDREREKDRRARKEEIRQSMAYHDLLSRDMRGRQMAEKVEKKASKIRTEERERRDEDSERIDEDRERRYRERKLQYGDSKEHPLSYWLYKEDGEKKHRKAKDADREKRLREKSSMREKRERHAREKGSSLSDREVEDRHREKRHKEGLHYDDERRRSHADKKERSSKEEHKKRELKELEKEDNDLEATGPDEYLPNLEDDFVDYEDDFEVCDGDDDSNNEHEAREKAEELPLAQKREIQEIQKAISAENERVGELSLKMFQKQGWTEYTKEPWTDANDSPSRTPVCGIFVDFATASHRQKSRSQALKQKTRSSKLLRLIDLDFSFTFSLLDLPPVNEYDMYIRNFGKKNTKQAYVQYNEDNVERDIQTEDIETREVWTQHPGEGTAVSGGSEEKDFSDVTVVPKIDTPRLANFLRAACQVVAVLLEEDRLAAGPSWIPRAQDKALNISDSSSQLNTSLPFLQSRKVSCLHASRVQRQTVVSVHDLPEKAFAPSLDSRHLLCVWDIWQPSGPQKVLICESKVTCCCFSPLKAFLLFAGTVHGSVVVWDLREDSRIHHYVRLSNCFWAFRTPTFSTDGILTSVNHRSPLQAIEPVATSAYKKQSFVLSPFSTQEEMAGLSFHIASLDETGVLNVWVVVELPKADISGSMSDLGLIPGGRIKLVHSTVIQLGNSLSHKDSELWGSTQTLSVKFLPSDPNHFVVGTDMGLISHSTRQDWRVSPRVFKPEQHGVRPIKVNVIDFSPFEETVFLAGCSDGSIRLHQLTSERPIMQWDNSTSGHAVTSLQWSPTRPAVFLVQDDASRIYVWDLLENDLGPVAQQPISPDKLVAMTIVGEPEKTSGSFVALVLARTSGTVDVQNLKRRWTTPAVDEHSQLRLLLQK
Consider B1, for which the binding result is on record as “binds”.
